Laboratory results published in patent US20090275730A1 (priority 2004, published 2009).
The star is where a group is joined. Cbz = O=C(OCc1ccccc1)*; Boc = CC(C)(C)OC(=O)*

Assay: general procedure: solution-phase peptide synthesis; EDC-HCl/HOBt; DCC/HOBt; DCC/HOSu for active esters
Conditions: coupling step
“Boc-(Gly1-Val^2-Gly^3-Hmb^4-Ala^5-Pro^6 )2-OBzl” gave a step yield of 75.8%. In the case of “Boc-(Gly1-Val^2-Gly^3-Hmb^4-Ala^5-Pro^6)6-OBzl”, the step yield is reported as 33%. “Boc-(Gly^1-Val^2-Gly^3-Hmb^4-Ala^5-Pro^6 )3-OBzl” gave a step yield of 80%. Work on “Boc-(Gly^1-Val^2-Gly^3-Hmb^4-Ala^5-Pro^6)4-OBzl” yielded a step yield of 77%. For “Boc-(Gly^1-Val^2-Gly^3-Hmb^4-Ala^5-Pro^6)5-OBzl”, the step yield was 67%. Work on Boc-Gly-Hmb-Ala-Pro-OBzl yielded a step yield of 54.9%. With Boc-Gly-Thr-Gly-Hmb-Pro-OBzl the step yield was 75%. In the case of Boc-Gly-Val-Gly-Hmb-Pro-OBzl, the step yield is reported as 34%. Work on Boc-Gly^1-Ile^2-Gly^3-Hmb^4-Pro^5-OBzl yielded a step yield of 58.1%. With “Boc-Gly^1-Lys(Z)^2-Gly^3-Val^4-Ala^5-Pro^6-OMe (SEQ ID NO: 5)” the step yield was 65%. For “Boc-Gly^1-Val^2-Gly^3-Hmb^4-Ala^5-Pro^6-OBzl”, the step yield was 40%. With Boc-Ile-Gly-Hmb-Pro-OBzl the step yield was 92.0%. In the case of Boc-K(Cbz)GVAP-OMe (SEQ ID NO: 3), the step yield is reported as 65%. For Boc-Thr-Gly-Hmb-Pro-OBzl, the step yield was 38%. With Boc-Val-Gly-Hmb-Ala-Pro-OBzl the step yield was 77.1%. Boc-Val-Gly-Hmb-Pro-OBzl showed a step yield of 93%.

Same assay, conditions: late stage modification step
Boc-Gly-Ile-Gly-Hmb-Pro-OSu showed a step yield of 79.9%. Boc-Gly-Thr-Gly-Hmb-Pro-OH gave a step yield of 86%. For Boc-Gly-Val-Gly-Hmb-Pro-OH, the step yield was 86%. In the case of Boc-Gly-Val-Gly-Hmb-Pro-OSu, the step yield is reported as 89%. Work on “Boc-Gly^1-Lys(Z)^2-Gly^3-Val^4-Ala^5-Pro^6-OH (SEQ ID NO: 7)” yielded a step yield of 84%. Substance “Boc-Gly^1-Lys(Z)^2-Gly^3-Val^4-Ala^5-Pro^6-OSu (SEQ ID NO: 8)” has a step yield of 80%. “Boc-Gly^1-Val^2-Gly^3-Hmb^4-Ala^5-Pro^6-OH” showed a step yield of 93%. “Boc-Gly^1-Val^2-Gly^3-Hmb^4-Ala^5-Pro^6-OSu” gave a step yield of 80%. Substance “TFA·H-Gly^1-Val^2-Gly^3-Hmb^4-Ala^5-Pro^6-OSu” has a step yield of 89%.
